Data as given in the supplement of paper PMC10849652.
The other results are listed elsewhere or left out.

Amino acid sequences for entries named in this document (tags omitted). A change or cut given only in a name is not applied to a line headed by its entry.
UniProt Q9P287, whole entry, looked up: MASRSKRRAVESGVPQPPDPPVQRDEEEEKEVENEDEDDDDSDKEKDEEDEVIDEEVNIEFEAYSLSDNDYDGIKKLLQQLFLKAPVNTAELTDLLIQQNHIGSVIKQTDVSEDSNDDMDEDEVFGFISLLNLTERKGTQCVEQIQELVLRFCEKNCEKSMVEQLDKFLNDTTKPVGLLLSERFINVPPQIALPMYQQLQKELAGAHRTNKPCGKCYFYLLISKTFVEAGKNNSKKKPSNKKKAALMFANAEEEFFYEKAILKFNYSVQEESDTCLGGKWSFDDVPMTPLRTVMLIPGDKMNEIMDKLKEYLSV
UniProt O75531: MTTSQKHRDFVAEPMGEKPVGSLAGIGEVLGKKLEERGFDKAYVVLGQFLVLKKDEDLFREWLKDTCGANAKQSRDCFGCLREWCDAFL
UniProt Q9Y276: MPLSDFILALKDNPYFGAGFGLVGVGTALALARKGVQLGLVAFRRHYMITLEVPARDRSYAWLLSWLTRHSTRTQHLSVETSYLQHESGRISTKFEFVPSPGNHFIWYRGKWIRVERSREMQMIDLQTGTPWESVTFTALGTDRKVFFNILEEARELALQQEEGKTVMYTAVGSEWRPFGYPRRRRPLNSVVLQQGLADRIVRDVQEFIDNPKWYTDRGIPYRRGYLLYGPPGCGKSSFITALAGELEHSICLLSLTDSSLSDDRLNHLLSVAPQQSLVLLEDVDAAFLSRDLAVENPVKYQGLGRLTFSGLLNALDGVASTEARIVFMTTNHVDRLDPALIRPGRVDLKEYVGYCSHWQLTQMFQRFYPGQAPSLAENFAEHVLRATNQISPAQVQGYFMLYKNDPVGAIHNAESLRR
UniProt Q12981: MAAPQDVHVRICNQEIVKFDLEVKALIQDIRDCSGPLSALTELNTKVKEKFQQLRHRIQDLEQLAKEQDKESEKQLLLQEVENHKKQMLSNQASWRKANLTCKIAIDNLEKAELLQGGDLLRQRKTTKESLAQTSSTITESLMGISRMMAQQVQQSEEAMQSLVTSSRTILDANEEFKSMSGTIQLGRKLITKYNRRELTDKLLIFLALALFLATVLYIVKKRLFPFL
UniProt Q14457, whole entry, looked up: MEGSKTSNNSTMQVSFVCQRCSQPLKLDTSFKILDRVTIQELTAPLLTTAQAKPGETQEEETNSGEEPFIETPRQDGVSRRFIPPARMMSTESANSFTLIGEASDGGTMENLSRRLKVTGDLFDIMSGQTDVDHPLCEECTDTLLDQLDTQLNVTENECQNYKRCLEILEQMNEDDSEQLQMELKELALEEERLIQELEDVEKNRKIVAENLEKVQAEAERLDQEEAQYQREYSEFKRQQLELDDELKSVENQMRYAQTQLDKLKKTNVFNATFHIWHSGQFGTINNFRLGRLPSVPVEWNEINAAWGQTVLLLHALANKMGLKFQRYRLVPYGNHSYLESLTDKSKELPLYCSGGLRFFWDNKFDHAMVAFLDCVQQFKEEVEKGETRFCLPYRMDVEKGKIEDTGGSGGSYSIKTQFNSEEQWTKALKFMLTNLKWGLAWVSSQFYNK
UniProt Q4VC05, whole entry, looked up: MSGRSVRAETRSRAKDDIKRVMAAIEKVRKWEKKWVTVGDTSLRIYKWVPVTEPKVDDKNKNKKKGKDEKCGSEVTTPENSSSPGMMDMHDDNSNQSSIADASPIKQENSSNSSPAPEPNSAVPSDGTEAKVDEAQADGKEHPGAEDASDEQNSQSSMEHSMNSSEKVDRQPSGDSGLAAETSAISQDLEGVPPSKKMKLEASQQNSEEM
UniProt Q9UIG0: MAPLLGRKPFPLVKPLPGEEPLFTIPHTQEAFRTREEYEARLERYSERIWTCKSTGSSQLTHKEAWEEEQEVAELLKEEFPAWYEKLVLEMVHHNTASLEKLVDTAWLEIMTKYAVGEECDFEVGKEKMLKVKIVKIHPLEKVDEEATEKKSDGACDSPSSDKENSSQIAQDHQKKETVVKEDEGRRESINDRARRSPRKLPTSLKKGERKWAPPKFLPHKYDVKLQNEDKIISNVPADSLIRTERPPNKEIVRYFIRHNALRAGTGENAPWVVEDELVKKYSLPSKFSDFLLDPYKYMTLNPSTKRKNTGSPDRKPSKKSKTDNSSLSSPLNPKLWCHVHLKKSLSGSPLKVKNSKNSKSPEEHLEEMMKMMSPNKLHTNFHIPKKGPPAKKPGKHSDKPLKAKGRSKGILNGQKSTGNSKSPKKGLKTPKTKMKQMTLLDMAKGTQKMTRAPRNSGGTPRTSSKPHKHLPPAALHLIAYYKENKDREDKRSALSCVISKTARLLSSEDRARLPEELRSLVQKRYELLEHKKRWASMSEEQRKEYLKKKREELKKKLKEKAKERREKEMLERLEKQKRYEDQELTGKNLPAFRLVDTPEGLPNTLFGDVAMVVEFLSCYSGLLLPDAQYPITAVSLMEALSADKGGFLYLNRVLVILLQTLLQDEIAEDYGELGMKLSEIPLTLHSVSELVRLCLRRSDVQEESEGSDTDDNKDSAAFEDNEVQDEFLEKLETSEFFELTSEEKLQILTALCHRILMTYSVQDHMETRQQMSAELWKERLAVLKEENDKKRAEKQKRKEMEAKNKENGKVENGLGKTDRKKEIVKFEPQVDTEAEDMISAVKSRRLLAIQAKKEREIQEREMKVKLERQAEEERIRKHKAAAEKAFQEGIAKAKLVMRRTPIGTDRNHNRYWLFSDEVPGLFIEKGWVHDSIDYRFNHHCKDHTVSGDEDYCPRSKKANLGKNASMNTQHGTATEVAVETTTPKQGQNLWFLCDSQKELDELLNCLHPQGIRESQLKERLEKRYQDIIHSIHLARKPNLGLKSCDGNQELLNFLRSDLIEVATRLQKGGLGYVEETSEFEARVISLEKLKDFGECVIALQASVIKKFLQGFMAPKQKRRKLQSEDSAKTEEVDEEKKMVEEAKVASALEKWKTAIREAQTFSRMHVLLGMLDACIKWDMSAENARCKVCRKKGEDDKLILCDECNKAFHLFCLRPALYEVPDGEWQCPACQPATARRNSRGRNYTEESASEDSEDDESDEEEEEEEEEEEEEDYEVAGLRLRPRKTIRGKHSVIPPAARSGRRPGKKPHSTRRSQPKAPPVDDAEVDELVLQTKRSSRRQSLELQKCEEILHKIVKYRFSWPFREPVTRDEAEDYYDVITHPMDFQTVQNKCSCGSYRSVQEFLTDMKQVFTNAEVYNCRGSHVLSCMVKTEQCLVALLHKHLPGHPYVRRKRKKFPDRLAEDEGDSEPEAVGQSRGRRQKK
UniProt Q9UQB8: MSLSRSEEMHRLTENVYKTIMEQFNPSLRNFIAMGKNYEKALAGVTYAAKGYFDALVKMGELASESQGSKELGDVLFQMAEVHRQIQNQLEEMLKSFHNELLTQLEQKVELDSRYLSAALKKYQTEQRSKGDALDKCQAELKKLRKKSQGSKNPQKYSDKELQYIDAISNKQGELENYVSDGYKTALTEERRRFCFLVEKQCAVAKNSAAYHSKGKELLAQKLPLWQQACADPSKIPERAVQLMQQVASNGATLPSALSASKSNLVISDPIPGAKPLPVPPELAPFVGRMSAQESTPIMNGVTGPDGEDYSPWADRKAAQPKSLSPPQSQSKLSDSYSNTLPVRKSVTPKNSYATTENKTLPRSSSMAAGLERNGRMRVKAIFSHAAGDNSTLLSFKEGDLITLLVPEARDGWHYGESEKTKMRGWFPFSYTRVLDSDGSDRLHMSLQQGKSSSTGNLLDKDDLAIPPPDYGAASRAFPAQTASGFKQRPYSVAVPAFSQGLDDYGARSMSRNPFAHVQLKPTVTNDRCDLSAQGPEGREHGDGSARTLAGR
UniProt Q92843: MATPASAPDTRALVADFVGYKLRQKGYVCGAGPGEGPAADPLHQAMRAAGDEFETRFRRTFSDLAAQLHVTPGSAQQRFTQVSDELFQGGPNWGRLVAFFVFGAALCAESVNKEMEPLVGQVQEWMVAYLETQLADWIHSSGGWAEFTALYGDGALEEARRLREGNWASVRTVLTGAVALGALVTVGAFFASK
UniProt Q9NWV8, whole entry, looked up: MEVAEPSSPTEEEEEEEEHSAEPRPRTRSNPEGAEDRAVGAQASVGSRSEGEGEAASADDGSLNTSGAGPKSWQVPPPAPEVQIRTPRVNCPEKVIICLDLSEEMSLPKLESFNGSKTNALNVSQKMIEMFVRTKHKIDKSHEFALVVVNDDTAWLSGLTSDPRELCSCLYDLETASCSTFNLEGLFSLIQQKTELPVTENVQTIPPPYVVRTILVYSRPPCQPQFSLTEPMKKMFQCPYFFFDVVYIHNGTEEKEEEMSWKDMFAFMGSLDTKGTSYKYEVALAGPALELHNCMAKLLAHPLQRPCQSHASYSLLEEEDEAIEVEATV
UniProt Q07812, whole entry, looked up: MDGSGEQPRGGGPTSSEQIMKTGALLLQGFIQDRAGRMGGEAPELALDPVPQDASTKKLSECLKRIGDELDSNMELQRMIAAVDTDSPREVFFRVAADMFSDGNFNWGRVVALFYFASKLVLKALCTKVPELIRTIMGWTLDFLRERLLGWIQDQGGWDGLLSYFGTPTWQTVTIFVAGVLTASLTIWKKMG
UniProt Q7Z569: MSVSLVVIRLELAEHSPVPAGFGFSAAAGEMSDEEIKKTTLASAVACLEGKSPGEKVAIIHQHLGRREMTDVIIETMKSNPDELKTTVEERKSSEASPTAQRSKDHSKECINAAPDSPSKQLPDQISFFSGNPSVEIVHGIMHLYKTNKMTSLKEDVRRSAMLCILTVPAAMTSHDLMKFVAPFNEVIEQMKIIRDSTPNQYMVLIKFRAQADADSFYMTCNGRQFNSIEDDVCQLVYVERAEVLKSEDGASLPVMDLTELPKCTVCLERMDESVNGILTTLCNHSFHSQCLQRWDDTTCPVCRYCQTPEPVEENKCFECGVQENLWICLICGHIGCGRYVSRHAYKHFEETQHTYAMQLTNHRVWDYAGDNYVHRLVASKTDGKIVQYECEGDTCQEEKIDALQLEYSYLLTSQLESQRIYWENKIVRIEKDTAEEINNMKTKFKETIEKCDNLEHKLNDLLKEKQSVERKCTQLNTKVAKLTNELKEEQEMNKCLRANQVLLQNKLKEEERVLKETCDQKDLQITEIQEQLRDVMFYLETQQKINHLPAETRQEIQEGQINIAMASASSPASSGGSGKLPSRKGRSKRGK
UniProt Q9H3K6: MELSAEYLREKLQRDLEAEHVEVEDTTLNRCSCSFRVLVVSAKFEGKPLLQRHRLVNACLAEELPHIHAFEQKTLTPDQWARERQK
UniProt Q92560: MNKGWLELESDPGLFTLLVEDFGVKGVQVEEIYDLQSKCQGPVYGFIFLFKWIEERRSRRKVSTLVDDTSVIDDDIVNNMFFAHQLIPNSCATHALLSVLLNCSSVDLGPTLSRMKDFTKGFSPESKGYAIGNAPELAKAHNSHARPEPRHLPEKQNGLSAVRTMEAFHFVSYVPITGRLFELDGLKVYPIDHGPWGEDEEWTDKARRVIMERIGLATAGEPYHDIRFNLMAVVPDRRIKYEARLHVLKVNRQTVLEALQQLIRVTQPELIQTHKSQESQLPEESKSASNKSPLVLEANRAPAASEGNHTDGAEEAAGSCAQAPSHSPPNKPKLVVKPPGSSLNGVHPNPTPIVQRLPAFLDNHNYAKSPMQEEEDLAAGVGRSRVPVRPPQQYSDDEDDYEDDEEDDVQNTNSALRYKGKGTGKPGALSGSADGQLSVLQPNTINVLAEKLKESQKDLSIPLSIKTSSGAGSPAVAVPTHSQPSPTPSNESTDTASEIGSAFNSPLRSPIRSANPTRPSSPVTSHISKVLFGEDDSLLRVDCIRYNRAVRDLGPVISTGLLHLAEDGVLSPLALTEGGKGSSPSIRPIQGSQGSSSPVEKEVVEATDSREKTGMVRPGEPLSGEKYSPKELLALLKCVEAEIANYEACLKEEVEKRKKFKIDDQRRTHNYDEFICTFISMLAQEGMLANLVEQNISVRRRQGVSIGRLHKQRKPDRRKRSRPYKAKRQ
UniProt P46736, whole entry, looked up: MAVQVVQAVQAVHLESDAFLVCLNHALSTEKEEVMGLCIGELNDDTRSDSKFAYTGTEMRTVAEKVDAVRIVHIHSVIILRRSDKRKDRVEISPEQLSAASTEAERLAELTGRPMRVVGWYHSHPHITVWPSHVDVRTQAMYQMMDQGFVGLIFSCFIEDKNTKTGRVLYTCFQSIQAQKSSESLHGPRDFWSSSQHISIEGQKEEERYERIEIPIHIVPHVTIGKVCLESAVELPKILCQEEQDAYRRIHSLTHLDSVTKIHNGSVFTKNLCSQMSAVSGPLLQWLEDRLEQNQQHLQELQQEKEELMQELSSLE

What was measured:
Experiment in all cases: log2 fold change, soluble protein after heating vs DMSO (PISA); higher = thermal stabilisation; K562 lysate, 10 uM; active = over 0.2 and 3.5 SD of the protein, either way, in both replicates (recomputed)
[1] = compound: CCCS(=O)(=O)Nc1ccc(F)c(C(=O)c2c[nH]c3ncc(-c4ccc(Cl)cc4)cc23)c1F [vemurafenib]
Outline: (§1)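 K562 pellets were dounce-homogenised in PBS pH 7.4 with 1 mM MgCl2, and the crude extract at 1 mg/mL protein was treated with 10 μM compound for 30 min. Aliquots were heated for 3 min across 48°C-58°C, pooled, and brought to 0.5% NP-40 at 4°C; soluble protein was the supernatant after 21,000xg for 90 min. Soluble protein was quantified by TMTpro 16plex LC-MS/MS with channel sums equalised, and reported as log2 fold change in thermal stability against DMSO controls, with values from duplicates.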

[2] = compound: CCCS(=O)(=O)Nc1ccc(F)c(C(=O)c2c[nH]c3ncc(Cl)cc23)c1F
Outline: as §1

[3] = compound: CCN(CCCOc1ccc2c(Nc3cc(CC(=O)Nc4cccc(F)c4)[nH]n3)ncnc2c1)CCOP(=O)(O)O [barasertib]
Outline: as §1

[4] = compound: CC[C@@H]1C(=O)N(C)c2cnc(Nc3ccc(C(=O)NC4CCN(C)CC4)cc3OC)nc2N1C1CCCC1
Outline: as §1

[5] = compound: CC[C@@H]1C(=O)N(C)c2cnc(Nc3ccc(C(=O)N[C@H]4CC[C@H](N5CCN(CC6CC6)CC5)CC4)cc3OC)nc2N1C(C)C [volasertib]
Outline: as §1

[6] = compound: CCn1c(C(=O)N(C2CC2)C2CC2)cc2c3c(ncn3C)c(Nc3cc(C)n(C)n3)nc21
Outline: as §1

[7] = compound: CCn1cc(-c2ccnc3[nH]c(-c4cccc(CN(C)C)c4)cc23)c(-c2ccc(NC(=O)N(C)C)cc2)n1
Outline: as §1

[8] = compound: CN1CCC(CNc2ccc3ncc(-c4cccc(OC(F)(F)F)c4)n3n2)CC1
Outline: as §1

[9] = compound: CN1CCN(CCOc2cc(OC3CCOCC3)c3c(Nc4c(Cl)ccc5c4OCO5)ncnc3c2)CC1 [saracatinib]
Outline: as §1

[10] = compound: CN1CCN(c2nc(C3=C(c4c[nH]c5ccccc45)C(=O)NC3=O)c3ccccc3n2)CC1 [sotrastaurin]
Outline: as §1

[11] = compound: CN1CC[C@H](c2c(O)cc(O)c3c(=O)cc(-c4ccccc4Cl)oc23)[C@H](O)C1 [alvocidib]
Outline: as §1

[12] = compound: CN1CCc2c(c3ccccc3n2Cc2ccc(C(=O)NO)cc2)C1 [Tubastatin A]
Outline: as §1

[13] = compound: CNC(=O)C1=CC=CC=C1NC2=NC(=NC=C2Cl)NC3=C(C=C(C=C3)N4CCOCC4)OC
Outline: as §1

[14] = compound: CNC(=O)c1ccc(Nc2ncc(C(F)(F)F)c(NCc3nccnc3N(C)S(C)(=O)=O)n2)cc1 [defactinib]
Outline: as §1

[15] = compound: CNc1nc(-c2ccc3c(N)n[nH]c3c2)cc(N2C[C@@H](C(=O)NC3CCCCC3)CC[C@H]2C)n1
Outline: as §1

[16] = compound: COC(=O)N[C@@H](C)CNc1nccc(-c2cn(C(C)C)nc2-c2cc(Cl)cc(NS(C)(=O)=O)c2F)n1 [encorafenib]
Outline: as §1

[17] = compound: COC(=O)[C@H](CCSC)NC(=O)C1=C(C=C(C=C1)NC[C@H](CS)N)C2=CC=CC=C2
Outline: as §1

[18] = compound: COc1cc(Nc2ncc3c(n2)-c2ccc(Cl)cc2C(c2c(F)cccc2OC)=NC3)ccc1C(=O)O [alisertib]
Outline: as §1

[19] = compound: COc1cc2nc(-c3cc(F)ccc3O)nc(N[C@@H]3CNC[C@H]3C(C)(C)O)c2cc1OC
Outline: as §1

[20] = compound: COc1cc2ncnc(Nc3ccc(F)c(Cl)c3)c2cc1OCCCN1CCOCC1 [gefitinib]
Outline: as §1

Row | Target | log2 fold change [1] | log2 fold change [2] | log2 fold change [3] | log2 fold change [4] | log2 fold change [5] | log2 fold change [6] | log2 fold change [7] | log2 fold change [8] | log2 fold change [9] | log2 fold change [10] | log2 fold change [11] | log2 fold change [12] | log2 fold change [13] | log2 fold change [14] | log2 fold change [15] | log2 fold change [16] | log2 fold change [17] | log2 fold change [18] | log2 fold change [19] | log2 fold change [20]
1 | BCCIP (UniProt Q9P287) | inactive: -0.016 | inactive: 0.013 | inactive: -0.009 | inactive: -0.035 | inactive: -0.006 | inactive: 0.063 | inactive: 0.024 | inactive: -0.055 | inactive: -0.04 | inactive: 0.05 | inactive: 0.024 | inactive: -0.012 | inactive: 0.017 | inactive: 0.016 | inactive: -0.017 | inactive: 0.02 | inactive: -0.016 | inactive: 0.003 | inactive: -0.004 | inactive: -0.009
2 | BANF1 (UniProt O75531) | inactive: 0.178 | inactive: -0.013 | inactive: 0.035 | inactive: -0.016 | inactive: 0.045 | inactive: 0.009 | inactive: -0.065 | inactive: 0 | inactive: 0.004 | inactive: -0.154 | inactive: -0.069 | inactive: 0.127 | inactive: 0.003 | inactive: 0.036 | inactive: 0.035 | inactive: -0.016 | inactive: -0.045 | inactive: 0.052 | inactive: -0.005 | inactive: -0.042
3 | BCS1L (UniProt Q9Y276) | inactive: 0.057 | inactive: 0.021 | inactive: 0.032 | inactive: 0 | inactive: 0.027 | inactive: 0.227 | inactive: 0.176 | inactive: -0.051 | inactive: -0.001 | inactive: -0.101 | inactive: -0.034 | inactive: 0.081 | inactive: 0.011 | inactive: -0.034 | inactive: -0.161 | inactive: 0 | inactive: 0.109 | inactive: 0.021 | inactive: 0.018 | inactive: 0.017
4 | BNIP1 (UniProt Q12981) | inactive: 0.024 | inactive: 0 | inactive: 0.057 | inactive: -0.032 | inactive: -0.054 | inactive: -0.013 | active: 0.287 | inactive: -0.204 | inactive: 0.032 | inactive: 0.006 | inactive: 0.231 | inactive: -0.045 | inactive: 0.055 | inactive: 0 | inactive: -0.014 | inactive: 0.095 | inactive: -0.037 | inactive: 0.004 | inactive: 0.004 | inactive: -0.018
5 | BECN1 (UniProt Q14457) | inactive: 0.002 | inactive: 0.038 | inactive: -0.015 | inactive: -0.01 | inactive: -0.042 | inactive: -0.041 | inactive: -0.006 | inactive: -0.033 | inactive: 0.101 | inactive: 0.005 | inactive: 0.001 | inactive: -0.024 | inactive: 0 | inactive: -0.025 | inactive: -0.022 | inactive: -0.032 | inactive: -0.007 | inactive: -0.016 | inactive: -0.013 | inactive: 0.03
6 | BCL7A isoform 2 (UniProt Q4VC05) | inactive: -0.054 | inactive: -0.047 | inactive: 0.067 | inactive: 0.046 | inactive: 0.032 | inactive: 0.101 | inactive: 0.032 | inactive: -0.065 | inactive: -0.008 | inactive: -0.023 | inactive: 0.042 | inactive: -0.022 | inactive: -0.035 | inactive: -0.06 | inactive: -0.006 | inactive: 0.071 | inactive: 0.014 | inactive: -0.033 | inactive: 0.014 | inactive: 0.023
7 | BAZ1B (UniProt Q9UIG0) | inactive: -0.037 | inactive: 0.033 | inactive: 0.03 | inactive: -0.028 | inactive: -0.042 | inactive: 0.015 | inactive: -0.039 | inactive: 0.006 | inactive: -0.029 | inactive: 0.007 | inactive: -0.044 | inactive: -0.055 | inactive: -0.043 | inactive: 0.019 | inactive: 0.012 | inactive: 0.074 | inactive: 0.128 | inactive: 0.012 | inactive: -0.013 | inactive: -0.04
8 | BTF3L4 (UniProt Q96K17) | inactive: -0.09 | inactive: -0.009 | inactive: 0.009 | inactive: 0.054 | inactive: 0.047 | inactive: -0.037 | inactive: -0.128 | inactive: 0.091 | inactive: -0.004 | inactive: 0.002 | inactive: -0.044 | inactive: 0.033 | inactive: 0.003 | inactive: 0.028 | inactive: 0.038 | inactive: -0.016 | inactive: -0.032 | inactive: 0.021 | inactive: -0.01 | inactive: -0.005
9 | BAIAP2 (UniProt Q9UQB8) | inactive: -0.004 | inactive: -0.009 | inactive: -0.01 | inactive: 0.007 | inactive: 0.031 | inactive: 0.015 | inactive: 0.033 | inactive: -0.037 | inactive: 0.015 | inactive: -0.046 | inactive: 0.023 | inactive: 0.038 | inactive: -0.015 | inactive: -0.008 | inactive: 0.02 | inactive: 0.026 | inactive: 0.022 | inactive: -0.013 | inactive: -0.013 | inactive: -0.019
10 | BCL2L2 isoform 2 (UniProt Q92843) | inactive: -0.013 | inactive: 0.023 | inactive: 0.004 | inactive: -0.007 | inactive: -0.011 | inactive: -0.01 | inactive: 0.036 | inactive: 0.023 | inactive: -0.014 | inactive: 0.003 | inactive: -0.018 | inactive: -0.038 | inactive: -0.036 | inactive: -0.011 | inactive: 0.003 | inactive: -0.015 | inactive: 0.068 | inactive: -0.019 | inactive: 0.003 | inactive: -0.025
11 | BABAM1 (UniProt Q9NWV8) | inactive: -0.025 | inactive: -0.011 | inactive: -0.017 | inactive: 0.024 | inactive: 0.023 | inactive: 0.045 | inactive: -0.167 | inactive: 0.017 | inactive: 0.013 | inactive: 0.018 | inactive: -0.016 | inactive: -0.161 | inactive: 0.011 | inactive: -0.019 | inactive: -0.026 | inactive: -0.025 | inactive: 0.041 | inactive: -0.008 | inactive: -0.008 | inactive: 0.009
12 | BAX isoform 2 (UniProt Q07812) | inactive: -0.003 | inactive: -0.005 | inactive: 0.118 | inactive: -0.008 | inactive: 0.021 | inactive: -0.011 | inactive: 0.036 | inactive: -0.05 | inactive: -0.002 | inactive: 0.007 | inactive: -0.035 | inactive: 0.038 | inactive: 0.108 | inactive: 0.05 | inactive: 0.055 | inactive: 0.045 | inactive: 0.011 | inactive: -0.011 | inactive: -0.029 | inactive: 0.032
13 | BRAP (UniProt Q7Z569) | inactive: 0.024 | inactive: 0.012 | inactive: 0.073 | inactive: 0.044 | inactive: -0.001 | inactive: -0.025 | inactive: -0.042 | inactive: 0.03 | inactive: 0.006 | inactive: 0.027 | inactive: -0.024 | inactive: -0.012 | inactive: 0.012 | inactive: -0.022 | inactive: 0.029 | inactive: 0.014 | inactive: -0.025 | inactive: -0.019 | inactive: 0.004 | inactive: -0.02
14 | BOLA2 (UniProt Q9H3K6) | inactive: -0.086 | inactive: -0.043 | inactive: 0.129 | inactive: -0.068 | inactive: 0.004 | inactive: 0.067 | active: 0.604 | inactive: -0.04 | inactive: -0.033 | inactive: -0.038 | inactive: 0.02 | inactive: 0.015 | inactive: -0.065 | inactive: 0.023 | inactive: -0.052 | inactive: 0.036 | inactive: -0.057 | inactive: -0.006 | inactive: 0.009 | inactive: -0.03
15 | BAP1 (UniProt Q92560) | inactive: 0.021 | inactive: -0.005 | inactive: -0.046 | inactive: 0.087 | inactive: 0.006 | inactive: -0.065 | inactive: 0.002 | inactive: -0.035 | inactive: 0.022 | inactive: -0.007 | inactive: 0.008 | inactive: -0.041 | inactive: 0.006 | inactive: -0.011 | inactive: -0.072 | inactive: -0.007 | inactive: 0.061 | inactive: -0.034 | inactive: -0.006 | inactive: 0.082
16 | BRCC3 (UniProt P46736) | inactive: -0.015 | inactive: -0.012 | inactive: -0.032 | inactive: -0.062 | inactive: 0.009 | inactive: -0.072 | inactive: -0.072 | inactive: 0.086 | inactive: 0.004 | inactive: -0.031 | inactive: 0.031 | inactive: -0.005 | inactive: 0.02 | inactive: -0.023 | inactive: -0.027 | inactive: 0.029 | inactive: 0.005 | inactive: 0.003 | inactive: -0.027 | inactive: -0.047

Single records, as listed above. Values in the order: log2 fold change [1] | log2 fold change [2] | log2 fold change [3] | log2 fold change [4] | log2 fold change [5] | log2 fold change [6] | log2 fold change [7] | log2 fold change [8] | log2 fold change [9] | log2 fold change [10] | log2 fold change [11] | log2 fold change [12] | log2 fold change [13] | log2 fold change [14] | log2 fold change [15] | log2 fold change [16] | log2 fold change [17] | log2 fold change [18] | log2 fold change [19] | log2 fold change [20]
BRCC3 (UniProt P46736) as listed: inactive: -0.015 | inactive: -0.012 | inactive: -0.032 | inactive: -0.062 | inactive: 0.009 | inactive: -0.072 | inactive: -0.072 | inactive: 0.086 | inactive: 0.004 | inactive: -0.031 | inactive: 0.031 | inactive: -0.005 | inactive: 0.02 | inactive: -0.023 | inactive: -0.027 | inactive: 0.029 | inactive: 0.005 | inactive: 0.003 | inactive: -0.027 | inactive: -0.047
BAX isoform 2 (UniProt Q07812) as listed: inactive: -0.003 | inactive: -0.005 | inactive: 0.118 | inactive: -0.008 | inactive: 0.021 | inactive: -0.011 | inactive: 0.036 | inactive: -0.05 | inactive: -0.002 | inactive: 0.007 | inactive: -0.035 | inactive: 0.038 | inactive: 0.108 | inactive: 0.05 | inactive: 0.055 | inactive: 0.045 | inactive: 0.011 | inactive: -0.011 | inactive: -0.029 | inactive: 0.032
